According to paper PMC11110727, “Exploiting thiol-functionalized benzosiloxaboroles for achieving diverse substitution patterns – synthesis, characterization and biological evaluation of promising antibacterial agents” (RSC Medicinal Chemistry, 2024):

Columns and labels:
[1] = tested on: S. aureus MRSA clinical strains (NMI); experiment: Selectivity index SI = IC50/MIC; assay type: cell-based, Staphylococcus aureus; settings: SI = IC50 (MRC-5)/MIC, from lowest and highest MIC values
[2] = tested on: S. aureus ATCC 43300 MRSA; experiment: Selectivity index SI = IC50/MIC; assay type: cell-based, Staphylococcus aureus; settings: SI = IC50 (MRC-5)/MIC

SMILES	SI range for S. aureus MRSA clinical strains (NMI) [1]	SI for S. aureus ATCC 43300 MRSA [2]
C[Si]1(C)OB(O)c2cc(F)c(SC3CC(=O)NC3=O)c(F)c21 (stereo not shown) [Compound 12, 3-((5,7-Difluoro-3-hydroxy-1,1-dimethyl-1,3-dihydrobenzo[c][1,2,5]oxasilaborol-6-yl)thio)pyrrolidine-2,5-dione]	13.4–26.8	
CC(=O)CSc1ccc2c(c1F)[Si](C)(C)OB2O [Compound 22, 1-((7-Fluoro-3-hydroxy-1,1-dimethyl-1,3-dihydrobenzo[c][1,2,5]oxasilaborol-6-yl)thio)propan-2-one]	>32.0	>32.0
C[Si]1(C)OB(O)c2ccc(SCC(=O)c3ccccc3)c(F)c21 [Compound 23, 2-((7-Fluoro-3-hydroxy-1,1-dimethyl-1,3-dihydrobenzo[c][1,2,5]oxasilaborol-6-yl)thio)-1-phenylethan-1-one]	40.4–80.8	
CCOP(=O)(OCC)Sc1c(F)cc2c(c1F)[Si](C)(C)OB2O [Compound 24, S-(5,7-Difluoro-3-hydroxy-1,1-dimethyl-1,3-dihydrobenzo[c][1,2,5]oxasilaborol-6-yl) O,O-diethyl phosphorothioate]	>32.0	>32.0
C[Si]1(C)OB(O)c2ccc(SC(=O)c3ccc(C(F)(F)F)cc3)c(F)c21 [Compound 25, S-(7-Fluoro-3-hydroxy-1,1-dimethyl-1,3-dihydrobenzo[c][1,2,5]oxasilaborol-6-yl) 4-(trifluoromethyl)benzothioate]	4.5–8.9	
